Reference: doi:10.1101/2021.01.18.426261

Biological target: T1, TSC1 (rat brain) (rat (endogenous in brain)) (UniProt Q9Z136)
T1 sequence: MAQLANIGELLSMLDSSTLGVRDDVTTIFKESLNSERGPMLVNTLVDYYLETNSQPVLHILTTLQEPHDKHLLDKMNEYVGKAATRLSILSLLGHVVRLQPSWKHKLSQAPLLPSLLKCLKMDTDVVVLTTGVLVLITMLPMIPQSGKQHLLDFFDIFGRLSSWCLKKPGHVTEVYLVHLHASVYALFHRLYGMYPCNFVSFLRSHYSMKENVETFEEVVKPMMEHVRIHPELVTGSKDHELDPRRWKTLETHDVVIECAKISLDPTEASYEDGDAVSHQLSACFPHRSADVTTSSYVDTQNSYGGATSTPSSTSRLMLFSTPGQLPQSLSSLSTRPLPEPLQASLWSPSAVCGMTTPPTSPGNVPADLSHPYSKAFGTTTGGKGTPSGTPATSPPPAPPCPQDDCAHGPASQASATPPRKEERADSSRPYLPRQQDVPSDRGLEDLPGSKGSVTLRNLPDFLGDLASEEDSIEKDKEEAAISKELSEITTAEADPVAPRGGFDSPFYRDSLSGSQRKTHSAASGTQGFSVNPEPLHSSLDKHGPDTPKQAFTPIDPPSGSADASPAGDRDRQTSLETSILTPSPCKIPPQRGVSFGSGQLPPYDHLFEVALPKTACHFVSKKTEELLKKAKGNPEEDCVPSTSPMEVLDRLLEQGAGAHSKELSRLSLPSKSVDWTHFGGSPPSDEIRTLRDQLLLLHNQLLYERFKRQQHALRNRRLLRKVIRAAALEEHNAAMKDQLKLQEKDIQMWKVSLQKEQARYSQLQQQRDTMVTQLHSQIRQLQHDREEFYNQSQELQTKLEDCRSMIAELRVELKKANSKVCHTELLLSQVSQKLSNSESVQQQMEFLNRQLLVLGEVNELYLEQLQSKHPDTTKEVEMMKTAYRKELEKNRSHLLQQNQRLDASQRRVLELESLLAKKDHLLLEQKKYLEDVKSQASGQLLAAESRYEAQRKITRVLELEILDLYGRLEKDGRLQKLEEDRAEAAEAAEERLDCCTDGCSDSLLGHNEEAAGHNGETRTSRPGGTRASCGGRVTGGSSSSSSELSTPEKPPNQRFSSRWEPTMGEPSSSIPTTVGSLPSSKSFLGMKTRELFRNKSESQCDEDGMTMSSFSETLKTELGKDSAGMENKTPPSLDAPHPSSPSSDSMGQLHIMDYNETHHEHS
Experiment: co-IP

- binding: binds
Substance: TBC1D7 (rat brain)

No constants are given. Whether binding was seen depends on the method and setting. Binding seen in cells or lysates may run through a third protein. A result given as binding can be weak or reduced; the word gives no strength.
